Measured values: article PMC9271913
Results are given in words; binding and its absence hold for the method and conditions named. In cells and extracts the contact can be indirect. These calls come from enrichment with a bait or labelling near it, and not all partners need be listed.

T1: Retention in endoplasmic reticulum 1 (Rer1), mouse (mouse (endogenous in brain)) (UniProt Q9CQU3)
T1 sequence: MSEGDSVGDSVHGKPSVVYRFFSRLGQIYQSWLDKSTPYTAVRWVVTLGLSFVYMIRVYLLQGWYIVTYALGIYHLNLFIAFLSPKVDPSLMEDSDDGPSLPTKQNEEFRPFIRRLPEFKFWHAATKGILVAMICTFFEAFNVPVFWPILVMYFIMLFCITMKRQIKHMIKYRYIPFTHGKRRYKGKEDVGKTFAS

B1: Tripartite motif-containing protein 2 isoform X2 (protein, UniProt Q9ESN6 1-744)
chain: MASEGASIPSPVVRQIDKQFLICSICLERYKNPKVLPCLHTFCERCLQNYIPAHSLTLSCPVCRQTSILPEKGVAALQNNFFITNLMDVLQRTPGSNGEDSSILETVTAVAAGKPLSCPNHDGNVMEFYCQSCETAMCRECTEGEHAEHPTVPLKDVVEQHKASLQVQLDAVNKRLPEIDSALQFISEIIHQLTNQKASIVDDIHSTFDELQKTLNVRKSVLLMELEVNYGLKHKVLQSQLDTLLQGQESIKSCSNFTAQALNHGTETEVLLVKKQMSEKLNELADQDFPLHPRENDQLDFIVETEGLKKSIHNLGTILTTNAVASETVATGEGLRQTIIGQPMSVTITTKDKDGELCKTGNAYLTAELSTPDGSVADGEILDNKNGTYEFLYTVQKEGDFTLSLRLYDQHIRGSPFKLKVIRSADVSPTTEGVKRRVKSPGSGHVKQKAVKRPASMYSTGKRKENPIEDDLIFRVGTKGRNKGEFTNLQGVAASTSGKILIADSNNQCVQIFSNDGQFKSRFGIRGRSPGQLQRPTGVAVHPSGDIIIADYDNKWVSIFSNDGKFKTKIGSGKLMGPKGVSVDRNGHIIVVDNKACCVFIFQPNGKIVTRFGSRGNGDRQFAGPHFAAVNSNNEIIITDFHNHSVKVFNQEGEFMLKFGSNGEGNGQFNAPTGVAVDSNGNIIVADWGNSRIQVFDGSGSFLSYINTSADPLYGPQGLALTSDGHVVVADSGNHCFKVYRYLQ
B2: KCC2a-S25 variant 1 (protein, UniProt Q91V14-1 1-1138)
chain: MSRRFTVTSLPPAASAASADPESRRHSVADPRRLPREDVKGDGNPKESSPFINSTDTEKGREYDGRNMALFEEEMDTSPMVSSLLSGLANYTNLPQGSREHEEAENNEGGKKKPVQAPRMGTFMGVYLPCLQNIFGVILFLRLTWVVGIAGIMESFCMVFICCSCTMLTAISMSAIATNGVVPAGGSYYMISRSLGPEFGGAVGLCFYLGTTFAGAMYILGTIEILLAYLFPAMAIFKAEDASGEAAAMLNNMRVYGTCVLTCMATVVFVGVKYVNKFALVFLGCVILSILAIYAGVIKSAFDPPNFPICLLGNRTLSRHGFDVCAKLAWEGNETVTTRLWGLFCSSRLLNATCDEYFTRNNVTEIQGIPGAASGLIKENLWSSYLTKGVIVERRGMPSVGLADGTPVDMDHPYVFSDMTSYFTLLVGIYFPSVTGIMAGSNRSGDLRDAQKSIPTGTILAIATTSAVYISSVVLFGACIEGVVLRDKFGEAVNGNLVVGTLAWPSPWVIVIGSFFSTCGAGLQSLTGAPRLLQAISRDGIVPFLQVFGHGKANGEPTWALLLTACICEIGILIASLDEVAPILSMFFLMCYMFVNLACAVQTLLRTPNWRPRFRYYHWTLSFLGMSLCLALMFICSWYYALVAMLIAGLIYKYIEYRGAEKEWGDGIRGLSLSAARYALLRLEEGPPHTKNWRPQLLVLVRVDQDQNVVHPQLLSLTSQLKAGKGLTIVGSVLEGTFLDNHPQAQRAEESIRRLMEAEKVKGFCQVVISSNLRDGVSHLIQSGGLGGLQHNTVLVGWPRNWRQKEDHQTWRNFIELVRETTAGHLALLVTKNVSMFPGNPERFSEGSIDVWWIVHDGGMLMLLPFLLRHHKVWRKCKMRIFTVAQMDDNSIQMKKDLTTFLYHLRITAEVEVVEMHESDISAYTYEKTLVMEQRSQILKQMHLTKNEREREIQSITDESRGSIRRKNPANPRLRLNVPEETACDNEEKPEEEVQLIHDQSAPSCPSSSPSPGEEPEGERETDPEVHLTWTKDKSVAEKNKGPSPVSSEGIKDFFSMKPEWENLNQSNVRRMHTAVRLNEVIVNKSRDAKLVLLNMPGPPRNRNGDENYMEFLEVLTEQLDRVMLVRGGGREVITIYS
B3: Sideroflexin-3 (protein, UniProt Q91V61 1-321)
chain: MGDLPLNINIQEPRWDQSTFLGRARHFFTVTDPRNLLLSGEQLEASRNIVQNYRAGVATPGLTEDQLWRAKYVYDSAFHPDTGEKVVLIGRMSAQVPMNMTITGCMLTFYRKTPTVVFWQWVNQSFNAIVNYSNRSGDAPITVQQLGTAYVSATTGAVATALGLKSLTKHLPPLVGRFVPFAAVAAANCINIPLMRQRELQVGIPVTDEAGQRLGHSVTAAKQGIFQVVISRIGMAIPAMAIPPVIMNTLEKKDFLKRRPWLGAPLQVGLVGFCLVFATPLCCALFPQRSSIHVTRLEPELRAQIQAQNPSIDVVYYNKGL
B4: Succinate-CoA ligase subunit beta (Fragment) (protein, UniProt Q9Z2I9 54-463)
chain: SLHEYLSMELLQEAGVSVPKGFVAKSSDEAYAIAKKLGSKDVVIKAQVLAGGRGKGTFTSGLKGGVKIVFSPEEAKAVSSQMIGQKLITKQTGEKGRICNQVLVCERKYPRREYYFAITMERSFQGPVLIGSAQGGVNIEDVAAENPEAIVKEPIDIVEGIKKEQAVTLAQKMGFPSNIVDSAAENMIKLYNLFLKYDATMVEINPMVEDSDGKVLCMDAKINFDSNSAYRQKKIFDLQDWSQEDERDKEAANADINYIGLDGSIGCLVNGAGLAMATMDIIKLHGGTPANFLDVGGGATVQQVTEAFKLITSDKKVQAILVNIFGGIMRCDVIAQGIVMAVKDLEIRIPVVVRLQGTRVDDAKALIADSGLKILACDDLDEAAKMVVKLSEIVTLAKEAHVDVKFQLPI
B5: Cytochrome b-c1 complex subunit 2, mitochondrial (protein, UniProt Q9DB77 15-453)
chain: SLKVAPKVKTSAAPGGVPLQPQDLEFTKLPNGLVIASLENYAPLSRIGLFVKAGSRYEDSNNLGTSHLLRLASSLTTKGASSFKITRGIEAVGGKLSVTATRENMAYTVEGIRSDIEILMEFLLNVTTAPEFRRWEVAALRSQLKIDKAVAFQNSQTRIIENLHDVAYKNALANPLYCPDYRMGKITSEELHYFVQNHFTSARMALVGLGVSHSVLKQVAEQFLNMRGGLGLAGAKAKYRGGEIREQNGDNLVHAAIVAESAAIGNAEANAFSVLQHLLGAGPHIKRGNNTTSLLSQSVAKGSHQPFDVSAFNASYSDSGLFGIYTISQAAAAGEVINAAYNQVKAVAQGNLSSADVQAAKNKLKAGYLMSVETSEGFLSEIGSQALAAGSYMPPSTVLQQIDSVADADVVKAAKKFVSGKKSMAASGNLGHTPFLDEL
B6: WD repeat-containing protein 37 isoform X2 (protein, UniProt Q8CBE3 1-496)
chain: MPTESGSCSTARQAKQKRKSHSLSIRRTNSSEQERTGLPREMLEGQDSKLPSSVRSTLLELFGQIEREFENLYIENLELRREIDTLNERLAGEGQAIDGAELSKGQLKTKASHSTSQLSQKLKTTYKASTSKIVSSFKTTTSRAICQLVKEYIGHRDGIWDVSVTRTQPIVLGTASADHTALLWSIETGKCLVKYAGHVGSVNSIKFHPSEQLALTASGDQTAHIWRYVVQLPTPQPVADTSQQISGEDEIECSDKDEPDIDGDVSSDCPTVRVPLTSLKSHQGVVIAADWLVGGKQVVTASWDRTANLYDVETSELVHSLTGHDQELTHCCTHPTQRLVVTSSRDTTFRLWDFRDPSIHSVNVFQGHTDTVTSAVFTVGDNVVSGSDDRTVKVWDLKNMRSPIATIRTDSAINRINVCVGQKIIALPHDNRQVRLFDMSGVRLARLPRSSRQGHRRMVCCSAWSEDHPICNLFTCGFDRQAIGWNINIPALLQEK
B7: Vacuolar protein sorting-associated protein 51 homolog (protein, UniProt Q3UVL4 1-782)
chain: MAAAAAVGPGLGSGPGDSPEGPEADAPERRRKAHGMLKLYYGLSEGEVAGHPAGPDPLDPTDLNGAHFDPEVYLDKLRRECPLAQLMDSETDMVRQIRALDSDMQTLVYENYNKFISATDTIRKMKNDFRKMEDEMDRLATNMAVITNFSARISATLQDRHERITKLAGVHALLRKLQFLFELPSRLTKCVELGAYGQAVRYQGRARAVLQQYQHLPSFRAIQDDCQVITARLAQQLRQRFREGCSGAPEQAECVELLLALGEPAEELCEEFLAHARGRLEEELSSLEAELGPSPPAPDVLEFTDRGGNGFVGGLCQVAAAYQELFAAQGPAGAEKLAAFAQELGGRYFALVERRLAQEQGGSDNSLLVRALDRFHRRLRAPGALLAAAGLSESATEIVERVARERLSHHLQGLKAAFLSSLTDVRQALAAPRLAGKEGPSLAELLANVASSILSHIKTSLASVHLFTAKEVSFSNKPYFRGEFCSQGVREGLIVGFIRSMCQTAQSFCDSPGEKGGATPPALLLLLSRLCLDYETATISYILTLTDEQFLVQDQSPVTPVSTLCAEARETARRLLTHYVKVQGLVISQMLRKSVETRDWLSTLEPRNVRAVMKRVVEDTTAIDVQVGLLYEEGVRKAQSSDSSKRTFSVYSSSRQQGRYAPSYTPSAPMDTNLLSNIQKLFSERIDVFSPVEFNKVSVLTGIIKISLKTLLECVRLRTFGRFGLQQVQVDCHFLQLYLWRFVADEELVHLLLDEVVASAALRCPDPVPMEPSVVEVICERG
B8: Synaptosomal-associated protein 47 (protein, UniProt Q8R570 1-413)
chain: MSSDMRVHSWSCSYYLDLEKQWVSGKLTLTPHSLKFIVEKTEEVLVGLPLSSIIEIRKESSLFIFGAITVLEKGQTKHWFSSLQPSRNVVFNVIEHFWRELLLSQPGTAANIPSHVTRGQELIGLMANSQKRMEDTAKDLQQQSEQLDSVLKGLEKMESDLDVADRLLTELETPSWWPFGSKFWKMPAEENLKEGVSSTCEPFGKEGVVITVPAIISERAESHSKLGKLTVLVSALEIYDSCSLLLHRFEKEDVDDIKVHSPYEVSIRQRFIGKPDVAYQLISAKMPEVIPILEVQFSSKIELLEDALVLRNKVFASSAERHAASRPKGCTPHRELPTGGQEGEQLQLQKNLPLFSEGEAQELTQILSKMKGLALDTEAELERQDAALDGITVAVDRATLNVDKQNRRMRKLM
B9: Regulator of G-protein signaling 14 isoform X1 (protein, UniProt P97492 1-547)
chain: MPGKPKHLGVPNGRMVLAVSDGELTSTAGSQAQGEGRGSSLSIHSLPSGPSSPFSTEEQPVASWAQSFERLLQDPRGLAYFTEFLKKEFSAENVTFWKACERFQQIPASDTKQLAQEAHNIYHEFLSSQALSPVNIDRQAWLSEEVLAQPRPDMFRAQQLQIFNLMKFDSYARFVKSPLYQECLLAEAEGRPLREPGSSHLGSPDTARKKPKLKPGKSLPLGVEELGQLPLAEGPCGRPLRKSFRREMTGGAMNSALRRESQGSLNSSASLDLGFLAFVSSKSESHRKSLGSGESESESRPGKYCCVYLPDGTASLALARPGLTIRDMLAGICEKRGLSLPDIKVYLVGNEQKALVLDQDCTVLADQEVRLENRITFQLELVGLERVVRISAKPTKRLQEALQPILAKHGLSLDQVVLHRPGEKQPMDLENPVSSVASQTLVLDTPPDAKMSEARSISPCRSQGCLPRTQTKDSHLPPSSSSLLVEDASSSTGNRQTCDIEGLVELLNRVQSSGAHDQRGLLRKEDLVLPEFLQLPSQRPGSREAPP

What follows are binders tested against T1, Retention in endoplasmic reticulum 1 (Rer1), mouse (mouse (endogenous in brain)) (assay: affinity purification with mass spectrometry; anti-RER1 immunoprecipitation of hippocampus lysates (gentle RIPA lysis buffer) of PTZ-induced Nedd4-2+/- and wild-type mice, LC-MS/MS; IgG-precipitated proteins subtracted; proteins present in all four replicates of a group defined as positive).

binding, binds:
B1
B2
B3
B4
B5
B6
B7
B8
B9
